Results published in the supplement of paper PMC12067093, “Discovery and optimisation of a covalent ligand for TRIM25 and its application to targeted protein ubiquitination” (Chemical Science, 2025).
The list shows a part of the results.

By UniProt entry, the sequences of proteins in these tests, tags left out. Where a name states a change or a piece, a line headed by the entry shows the natural chain unless it says otherwise.
UniProt Q9NW13: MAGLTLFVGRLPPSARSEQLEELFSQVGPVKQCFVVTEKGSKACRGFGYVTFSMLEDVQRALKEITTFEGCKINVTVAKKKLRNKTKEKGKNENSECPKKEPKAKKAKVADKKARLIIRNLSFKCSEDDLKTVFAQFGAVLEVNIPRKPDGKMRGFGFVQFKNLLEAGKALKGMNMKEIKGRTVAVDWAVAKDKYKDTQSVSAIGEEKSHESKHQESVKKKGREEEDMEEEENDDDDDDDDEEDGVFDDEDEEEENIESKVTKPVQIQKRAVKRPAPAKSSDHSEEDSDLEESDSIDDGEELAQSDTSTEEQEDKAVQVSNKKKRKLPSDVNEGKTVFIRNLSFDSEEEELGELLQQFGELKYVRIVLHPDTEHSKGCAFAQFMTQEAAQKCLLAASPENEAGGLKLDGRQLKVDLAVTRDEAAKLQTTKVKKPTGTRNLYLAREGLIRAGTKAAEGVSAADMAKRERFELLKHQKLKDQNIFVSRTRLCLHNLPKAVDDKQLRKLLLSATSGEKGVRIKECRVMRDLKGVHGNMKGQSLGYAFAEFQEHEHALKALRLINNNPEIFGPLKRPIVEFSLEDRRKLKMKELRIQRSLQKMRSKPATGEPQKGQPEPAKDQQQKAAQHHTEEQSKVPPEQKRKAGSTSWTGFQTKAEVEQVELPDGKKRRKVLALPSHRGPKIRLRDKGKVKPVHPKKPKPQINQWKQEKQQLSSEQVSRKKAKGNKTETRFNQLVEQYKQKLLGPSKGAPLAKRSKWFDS
UniProt Q9Y4C8: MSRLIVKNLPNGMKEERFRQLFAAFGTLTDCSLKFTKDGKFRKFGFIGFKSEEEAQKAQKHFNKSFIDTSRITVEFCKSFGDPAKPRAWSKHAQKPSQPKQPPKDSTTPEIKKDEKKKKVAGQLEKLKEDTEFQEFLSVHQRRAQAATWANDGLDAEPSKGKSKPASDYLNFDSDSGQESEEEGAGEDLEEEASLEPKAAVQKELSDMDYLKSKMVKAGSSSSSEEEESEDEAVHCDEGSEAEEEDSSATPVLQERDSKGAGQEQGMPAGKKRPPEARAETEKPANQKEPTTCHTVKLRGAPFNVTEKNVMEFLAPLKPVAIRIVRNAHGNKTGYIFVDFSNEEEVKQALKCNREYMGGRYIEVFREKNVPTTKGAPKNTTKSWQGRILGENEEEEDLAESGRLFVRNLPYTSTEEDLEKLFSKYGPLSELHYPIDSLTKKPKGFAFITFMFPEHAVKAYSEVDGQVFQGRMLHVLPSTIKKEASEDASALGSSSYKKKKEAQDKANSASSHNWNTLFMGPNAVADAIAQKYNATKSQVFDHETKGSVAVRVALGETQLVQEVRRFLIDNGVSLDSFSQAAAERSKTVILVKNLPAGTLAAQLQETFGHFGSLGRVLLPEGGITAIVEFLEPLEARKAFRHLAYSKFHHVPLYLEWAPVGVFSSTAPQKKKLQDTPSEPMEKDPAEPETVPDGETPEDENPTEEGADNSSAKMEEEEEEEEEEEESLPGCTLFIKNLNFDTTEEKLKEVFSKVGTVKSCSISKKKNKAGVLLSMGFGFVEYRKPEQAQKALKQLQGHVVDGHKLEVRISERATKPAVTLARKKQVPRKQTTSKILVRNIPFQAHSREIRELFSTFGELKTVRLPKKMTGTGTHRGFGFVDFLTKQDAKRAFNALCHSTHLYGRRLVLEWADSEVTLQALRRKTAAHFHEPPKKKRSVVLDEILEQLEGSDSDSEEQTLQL
UniProt Q13905: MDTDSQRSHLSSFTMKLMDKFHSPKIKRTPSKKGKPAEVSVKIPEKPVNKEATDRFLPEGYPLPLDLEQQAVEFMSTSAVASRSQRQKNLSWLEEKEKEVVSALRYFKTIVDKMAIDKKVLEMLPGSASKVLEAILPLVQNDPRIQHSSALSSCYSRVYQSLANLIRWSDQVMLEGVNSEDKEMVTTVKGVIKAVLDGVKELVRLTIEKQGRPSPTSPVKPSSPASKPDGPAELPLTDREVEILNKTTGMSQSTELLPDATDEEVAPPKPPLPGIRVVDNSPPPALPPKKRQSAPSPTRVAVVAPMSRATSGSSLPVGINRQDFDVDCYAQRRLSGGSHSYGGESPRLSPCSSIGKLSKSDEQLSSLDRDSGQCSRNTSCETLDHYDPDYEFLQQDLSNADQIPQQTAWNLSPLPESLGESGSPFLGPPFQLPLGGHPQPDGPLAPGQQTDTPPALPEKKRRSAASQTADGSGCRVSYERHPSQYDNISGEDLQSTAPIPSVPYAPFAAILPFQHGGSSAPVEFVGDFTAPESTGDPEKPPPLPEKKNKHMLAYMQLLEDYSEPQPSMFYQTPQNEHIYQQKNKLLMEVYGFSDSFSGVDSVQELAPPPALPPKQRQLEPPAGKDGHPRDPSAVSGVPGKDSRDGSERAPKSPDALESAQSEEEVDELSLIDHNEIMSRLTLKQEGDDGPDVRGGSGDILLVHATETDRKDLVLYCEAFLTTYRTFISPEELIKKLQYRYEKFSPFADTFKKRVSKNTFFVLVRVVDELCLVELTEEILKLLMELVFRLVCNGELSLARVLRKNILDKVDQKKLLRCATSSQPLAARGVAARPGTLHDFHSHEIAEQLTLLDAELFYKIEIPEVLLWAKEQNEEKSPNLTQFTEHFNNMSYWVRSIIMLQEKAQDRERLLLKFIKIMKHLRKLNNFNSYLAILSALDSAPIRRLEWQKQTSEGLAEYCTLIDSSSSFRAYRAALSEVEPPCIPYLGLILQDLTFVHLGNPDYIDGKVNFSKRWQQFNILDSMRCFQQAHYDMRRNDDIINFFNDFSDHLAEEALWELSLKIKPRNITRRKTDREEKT
UniProt Q96PM5: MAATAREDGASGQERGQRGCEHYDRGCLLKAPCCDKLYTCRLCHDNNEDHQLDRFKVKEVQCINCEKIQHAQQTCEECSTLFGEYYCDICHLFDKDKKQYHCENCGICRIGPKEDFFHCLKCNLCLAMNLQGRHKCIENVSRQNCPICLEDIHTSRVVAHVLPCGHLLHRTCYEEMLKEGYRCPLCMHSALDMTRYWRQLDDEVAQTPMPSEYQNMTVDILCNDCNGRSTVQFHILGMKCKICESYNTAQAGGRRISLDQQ
UniProt Q7LDG7: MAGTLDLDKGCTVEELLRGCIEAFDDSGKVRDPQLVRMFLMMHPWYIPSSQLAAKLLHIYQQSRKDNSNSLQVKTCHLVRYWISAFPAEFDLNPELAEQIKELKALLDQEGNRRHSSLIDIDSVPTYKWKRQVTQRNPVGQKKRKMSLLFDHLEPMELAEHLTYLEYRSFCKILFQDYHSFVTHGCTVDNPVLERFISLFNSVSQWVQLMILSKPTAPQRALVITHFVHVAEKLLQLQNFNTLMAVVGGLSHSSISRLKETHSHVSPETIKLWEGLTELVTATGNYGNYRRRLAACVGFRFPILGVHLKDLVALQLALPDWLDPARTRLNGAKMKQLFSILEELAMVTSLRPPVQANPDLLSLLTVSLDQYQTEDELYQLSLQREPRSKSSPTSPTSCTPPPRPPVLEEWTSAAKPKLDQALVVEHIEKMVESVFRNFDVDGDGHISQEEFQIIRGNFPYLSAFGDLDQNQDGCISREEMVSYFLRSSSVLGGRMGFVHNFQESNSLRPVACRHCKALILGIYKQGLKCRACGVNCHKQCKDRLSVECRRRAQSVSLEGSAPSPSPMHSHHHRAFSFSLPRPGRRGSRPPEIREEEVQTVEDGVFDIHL
UniProt Q86X27: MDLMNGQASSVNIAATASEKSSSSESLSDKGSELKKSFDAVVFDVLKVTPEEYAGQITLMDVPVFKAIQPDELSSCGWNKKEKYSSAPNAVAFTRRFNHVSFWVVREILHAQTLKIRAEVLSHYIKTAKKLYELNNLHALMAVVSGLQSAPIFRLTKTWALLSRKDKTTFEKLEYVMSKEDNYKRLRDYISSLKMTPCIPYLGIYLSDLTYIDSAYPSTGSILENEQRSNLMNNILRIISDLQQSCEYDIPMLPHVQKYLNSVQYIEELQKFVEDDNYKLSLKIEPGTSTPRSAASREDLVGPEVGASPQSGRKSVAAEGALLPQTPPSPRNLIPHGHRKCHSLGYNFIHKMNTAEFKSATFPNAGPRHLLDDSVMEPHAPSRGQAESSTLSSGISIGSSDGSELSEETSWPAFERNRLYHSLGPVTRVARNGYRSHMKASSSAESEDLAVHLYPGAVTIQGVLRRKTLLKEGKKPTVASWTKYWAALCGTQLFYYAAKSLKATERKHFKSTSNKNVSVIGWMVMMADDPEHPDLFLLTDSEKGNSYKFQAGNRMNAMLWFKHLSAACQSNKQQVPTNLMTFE
UniProt P54136: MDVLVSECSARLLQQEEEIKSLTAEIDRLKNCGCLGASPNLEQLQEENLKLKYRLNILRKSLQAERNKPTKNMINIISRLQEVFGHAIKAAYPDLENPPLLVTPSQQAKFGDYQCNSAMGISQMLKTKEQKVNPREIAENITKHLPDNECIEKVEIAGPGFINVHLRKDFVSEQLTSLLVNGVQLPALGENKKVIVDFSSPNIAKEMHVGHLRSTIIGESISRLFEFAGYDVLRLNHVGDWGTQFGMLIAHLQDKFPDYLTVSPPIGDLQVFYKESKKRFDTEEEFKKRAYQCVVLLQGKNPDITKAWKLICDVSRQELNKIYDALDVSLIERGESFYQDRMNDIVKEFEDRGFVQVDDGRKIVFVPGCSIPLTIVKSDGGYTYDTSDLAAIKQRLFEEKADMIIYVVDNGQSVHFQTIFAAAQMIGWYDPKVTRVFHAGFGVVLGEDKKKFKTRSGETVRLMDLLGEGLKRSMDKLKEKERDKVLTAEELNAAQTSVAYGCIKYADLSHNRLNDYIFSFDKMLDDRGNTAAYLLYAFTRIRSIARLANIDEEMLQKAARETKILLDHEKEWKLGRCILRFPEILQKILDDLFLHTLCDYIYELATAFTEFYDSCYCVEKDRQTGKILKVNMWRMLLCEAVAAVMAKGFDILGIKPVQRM
UniProt P62877, whole entry, looked up: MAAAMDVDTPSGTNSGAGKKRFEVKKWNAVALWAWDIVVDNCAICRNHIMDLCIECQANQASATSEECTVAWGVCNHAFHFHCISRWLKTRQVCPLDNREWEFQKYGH
UniProt Q15283: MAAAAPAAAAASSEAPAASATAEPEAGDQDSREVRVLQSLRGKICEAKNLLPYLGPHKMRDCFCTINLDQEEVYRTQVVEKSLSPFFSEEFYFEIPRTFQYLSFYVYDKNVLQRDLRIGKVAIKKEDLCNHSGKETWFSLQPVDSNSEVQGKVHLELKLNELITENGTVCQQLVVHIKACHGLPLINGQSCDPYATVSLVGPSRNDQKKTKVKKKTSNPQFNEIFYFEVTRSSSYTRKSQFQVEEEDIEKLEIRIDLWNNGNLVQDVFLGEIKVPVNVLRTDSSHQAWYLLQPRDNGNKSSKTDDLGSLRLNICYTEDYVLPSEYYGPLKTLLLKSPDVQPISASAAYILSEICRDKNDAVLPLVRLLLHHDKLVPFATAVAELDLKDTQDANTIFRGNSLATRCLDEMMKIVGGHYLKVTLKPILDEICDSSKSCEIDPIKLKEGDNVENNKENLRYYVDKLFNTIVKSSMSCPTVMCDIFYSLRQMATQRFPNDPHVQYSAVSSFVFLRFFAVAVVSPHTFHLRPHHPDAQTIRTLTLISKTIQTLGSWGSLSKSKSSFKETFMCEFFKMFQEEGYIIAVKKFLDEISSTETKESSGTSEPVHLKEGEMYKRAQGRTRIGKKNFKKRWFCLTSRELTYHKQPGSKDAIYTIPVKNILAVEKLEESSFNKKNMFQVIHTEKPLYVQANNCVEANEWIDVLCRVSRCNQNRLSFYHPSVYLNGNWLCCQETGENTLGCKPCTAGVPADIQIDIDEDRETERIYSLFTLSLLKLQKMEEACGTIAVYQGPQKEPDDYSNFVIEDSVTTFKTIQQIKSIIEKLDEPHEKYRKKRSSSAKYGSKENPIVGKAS
UniProt P62834: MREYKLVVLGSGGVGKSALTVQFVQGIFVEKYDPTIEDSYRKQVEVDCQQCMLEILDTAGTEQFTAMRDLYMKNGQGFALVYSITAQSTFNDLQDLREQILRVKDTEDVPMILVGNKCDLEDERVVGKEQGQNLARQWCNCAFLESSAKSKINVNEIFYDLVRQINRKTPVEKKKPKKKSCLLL
UniProt P43487, whole entry, looked up: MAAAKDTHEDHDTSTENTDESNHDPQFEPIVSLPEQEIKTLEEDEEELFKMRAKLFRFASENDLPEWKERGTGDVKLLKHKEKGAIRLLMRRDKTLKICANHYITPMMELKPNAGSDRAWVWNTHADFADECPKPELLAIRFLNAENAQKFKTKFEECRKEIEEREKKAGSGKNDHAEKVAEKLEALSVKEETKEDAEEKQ
UniProt Q9HBH5: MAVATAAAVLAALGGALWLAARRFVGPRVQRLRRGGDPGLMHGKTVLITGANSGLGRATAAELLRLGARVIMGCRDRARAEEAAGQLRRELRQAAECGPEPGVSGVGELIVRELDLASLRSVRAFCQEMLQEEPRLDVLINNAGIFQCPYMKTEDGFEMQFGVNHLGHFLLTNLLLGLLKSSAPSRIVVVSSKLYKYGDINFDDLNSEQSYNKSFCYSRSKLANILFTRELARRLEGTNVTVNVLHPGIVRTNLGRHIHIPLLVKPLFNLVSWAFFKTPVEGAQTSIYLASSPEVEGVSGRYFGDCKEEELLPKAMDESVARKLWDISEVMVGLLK

What follows are targets tested with Cc1cc(ccc1-c1ccccc1)C(=O)N1CCCN(CC1)C(=O)CCl [compound 10] (assay: probe-labelled cysteine peptide fold change vs DMSO (competition) (log2 fold change); higher = less target engagement (more negative = stronger competition)). Settings: 10 µM; THP-1; incubation time: 4 h.
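Also: competitive profiling in live THP-1 cells: cysteine peptides tagged with an iodoacetamide desthiobiotin (IA-DTB) probe, intensity after compound treatment relative to DMSO-treated cells.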

| Target | probe-labelled cysteine peptide fold change |
| --- | --- |
| RBM28_Q9NW13_97_NENSECPK (UniProt Q9NW13) | -0.0194 |
| RCCD1_A6NED2_139_LPLLPCAR (UniProt A6NED2) | -1.01 |
| RASA3_Q14644_328_SADVEPVSASAAHILGEVCR (UniProt Q14644) | -0.0262 |
| RBM19_Q9Y4C8_77_ITVEFCK (UniProt Q9Y4C8) | 0.0194 |
| RAPGEF1_Q13905_958_QTSEGLAEYCTLIDSSSSFR (UniProt Q13905) | -0.103 |
| RALGAPB_Q86X10_278_VPDEDASLIPPEMDNECVAQTWFR (UniProt Q86X10) | -0.15 |
| RB1CC1_Q8TDY2_603_VPLLCDFEPLHQHVLALHNLVK (UniProt Q8TDY2) | -0.156 |
| RBM6_P78332_960_LACLLCR (UniProt P78332) | -0.0337 |
| RCHY1_Q96PM5_43_LCHDNNEDHQLDR (UniProt Q96PM5) | 0.344 |
| RASGRP2_Q7LDG7_11_GCTVEELLR (UniProt Q7LDG7) | 0.159 |
| RALY_Q9UKM9_51_VAGCSVHK (UniProt Q9UKM9) | 0.122 |
| RAN_P62826_120_VCENIPIVLCGNK (UniProt P62826) | -0.0124 |
| RASGRP2_Q7LDG7_76_TCHLVR (UniProt Q7LDG7) | -0.118 |
| RALGPS2_Q86X27_341_CHSLGYNFIHK (UniProt Q86X27) | -0.208 |
| RCHY1_Q96PM5_148_QNCPICLEDIHTSR (UniProt Q96PM5) | 0.358 |
| RARS_P54136_32_NCGCLGASPNLEQLQEENLK (UniProt P54136) | 0.187 |
| RCHY1_Q96PM5_183+186_CPLCMHSALDMTR (UniProt Q96PM5) | 0.03 |
| RBBP4_Q09028_278_PSHSVDAHTAEVNCLSFNPYSEFILATGSADK (UniProt Q09028) | 0.236 |
| RASGRP2_Q7LDG7_512_MGFVHNFQESNSLRPVACR (UniProt Q7LDG7) | -0.0754 |
| RBM28_Q9NW13_392_CLLAASPENEAGGLK (UniProt Q9NW13) | 0.0774 |

| Target | probe-labelled cysteine peptide fold change |
| --- | --- |
| RBX1_P62877_94_QVCPLDNREWEFQK (UniProt P62877) | -0.296 |
| RBBP7_Q16576_202_EGYGLSWNSNLSGHLLSASDDHTVCLWDINAGPK (UniProt Q16576) | 0.0794 |
| RASA2_Q15283_354_SPDVQPISASAAYILSEICR (UniProt Q15283) | 0.296 |
| RCL1_Q9Y2P8_13_ATQAHSLSYAGCNFLR (UniProt Q9Y2P8) | 0.122 |
| RAP1GDS1_P52306_117_ALGNICYDSHEGR (UniProt P52306) | -0.095 |
| RBPJ_Q06330_397_CGESMLCVVPDISAFR (UniProt Q06330) | 0.406 |
| RAP1A_P62834_118_DTEDVPMILVGNKCDLEDERVVGK (UniProt P62834) | -0.426 |
| RANBP1_P43487_99_ICANHYITPMMELKPNAGSDR (UniProt P43487) | 0.141 |
| RDH13_Q8NBN7_30_DYVTGGACPSK (UniProt Q8NBN7) | -0.162 |
| RCHY1_Q96PM5_20_GCEHYDR (UniProt Q96PM5) | -0.00508 |
| RANBP2_P49792_581_HGLQPALLVHWAECLQK (UniProt P49792) | 0.132 |
| RBM22_Q9NW64_27_QNWEDADFPILCQTCLGENPYIR (UniProt Q9NW64) | 0.169 |
| RDH14_Q9HBH5_97_QAAECGPEPGVSGVGELIVR (UniProt Q9HBH5) | -0.0913 |
| RAI1_Q7Z5J4_790_GDTHEASACLGFQEEDPPGEK (UniProt Q7Z5J4) | -0.354 |
| RC3H1_Q5TC82_1049_ELSMENQCSLDMK (UniProt Q5TC82) | -0.342 |
| RCC2_Q9P258_305_AQRIEYDCELVPR (UniProt Q9P258) | -0.00203 |
| RBL2_Q08999_635_ADEICIAGSPLTPR (UniProt Q08999) | -0.456 |
| RBM14_Q96PK6_108_VIECDVVK (UniProt Q96PK6) | 0.0525 |
| RARS_P54136_293_AYQCVVLLQGK (UniProt P54136) | 0.0372 |
